Laboratory results published in paper PMC6759600.
These are yes or no findings as the source states them, for the method shown. In cells and extracts the contact can be indirect. Some entries that bind do so weakly or less than the wild type. Sequences can lack the tags named with a protein.

Chains of the proteins cited; added tags and fusions are not shown. Lines headed by an entry give the natural chain unless they say otherwise; changes in a name come on top. Residues count along the entry.
UniProt Q96SW2: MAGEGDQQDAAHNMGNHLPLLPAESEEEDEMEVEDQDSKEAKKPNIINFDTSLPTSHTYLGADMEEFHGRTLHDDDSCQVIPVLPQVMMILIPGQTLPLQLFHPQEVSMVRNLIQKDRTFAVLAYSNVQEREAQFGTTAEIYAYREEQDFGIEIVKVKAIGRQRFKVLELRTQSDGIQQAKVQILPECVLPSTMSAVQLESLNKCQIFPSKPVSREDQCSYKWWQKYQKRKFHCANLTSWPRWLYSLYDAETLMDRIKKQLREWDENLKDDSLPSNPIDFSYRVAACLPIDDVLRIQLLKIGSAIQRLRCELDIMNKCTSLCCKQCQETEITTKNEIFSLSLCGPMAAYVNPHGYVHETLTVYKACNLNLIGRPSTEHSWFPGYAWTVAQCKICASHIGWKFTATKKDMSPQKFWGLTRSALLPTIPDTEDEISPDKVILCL
Myc-CRBN 1-261: residues 1-261 of Q96SW2
Myc-CRBN 1-186: residues 1-186 of Q96SW2

Key:
Assay in all cases: co-IP; HEK293T cells co-transfected, harvested 38 h after transfection; IP with anti-Myc antibody, immunoblot with anti-Flag or anti-Myc
Myc-CRBN 1-186 = Myc-CRBN 1-186 (UniProt Q96SW2)
Myc-CRBN 1-261 = Myc-CRBN 1-261 (UniProt Q96SW2)
Myc-CRBN wild type = Myc-CRBN wild type (UniProt Q96SW2)

Measured: binding

B1: Flag-ECSIT wild type (protein, UniProt Q9BQ95 49-431)
chain: SSEQSLVPSPPEPRQRPTKALVPFEDLFGQAPGGERDKASFLQTVQKFAEHSVRKRGHIDFIYLALRKMREYGVERDLAVYNQLLNIFPKEVFRPRNIIQRIFVHYPRQQECGIAVLEQMENHGVMPNKETEFLLIQIFGRKSYPMLKLVRLKLWFPRFMNVNPFPVPRDLPQDPVELAMFGLRHMEPDLSARVTIYQVPLPKDSTGAADPPQPHIVGIQSPDQQAALARHNPARPVFVEGPFSLWLRNKCVYYHILRADLLPPEEREVEETPEEWNLYYPMQLDLEYVRSGWDNYEFDINEVEEGPVFAMCMAGAHDQATMAKWIQGLQETNPTLAQIPVVFRLAGSTRELQTSSAGLEEPPLPEDHQEEDDNLQRQQQGQS
binds: Myc-CRBN 1-186 | Myc-CRBN 1-261 | Myc-CRBN wild type
